No constants are given. Whether binding was seen depends on the method and setting. Some binding calls cover weakened binding; strength is not graded here.

Sequences of proteins named here, by UniProt entry; tags and fusion partners are left off.
UniProt O00574: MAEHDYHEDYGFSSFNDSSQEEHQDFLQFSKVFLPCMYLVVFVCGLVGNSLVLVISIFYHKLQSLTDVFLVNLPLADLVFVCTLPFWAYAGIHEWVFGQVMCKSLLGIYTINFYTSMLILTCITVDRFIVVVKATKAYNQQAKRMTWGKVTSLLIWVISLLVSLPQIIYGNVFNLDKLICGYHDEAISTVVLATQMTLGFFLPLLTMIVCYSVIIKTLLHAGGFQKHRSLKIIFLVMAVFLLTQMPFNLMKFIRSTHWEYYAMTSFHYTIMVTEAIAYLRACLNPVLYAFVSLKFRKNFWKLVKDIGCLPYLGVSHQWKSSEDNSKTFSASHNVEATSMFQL

For experiment [1], the target named is CXCR6 on CXCR6-expressing 293T cells (UniProt O00574). The experiment can be described thus: flow cytometry on cells; soluble ligand binding: CXCL16 (50 ng/ul) premixed with phage scFv or M13 helper phage (1 h, 4 C), then anti-His antibody (1 h, 4 C), added to fixed CXCR6-expressing 293T cells on ice for 30 min; only the binder purified. Background: A flow cytometer gives signals particle by particle.

The target is the same in experiment [2]. The experiment is described as follows: flow cytometry on cells; soluble ligand binding assay of CXCL16 on CXCR6-expressing cells in the presence of purified full-length IgG antibodies; only the binder purified.

B1: CXC motif chemokine ligand 16 (CXCL16) (ligand, UniProt Q9H2A7 30-205)
chain: NEGSVTGSCYCGKRISSDSPPSVQFMNRLRKHLRAYHRCLYYTRFQLLSWSVCGGNKDPWVQELMSCLDLKECGHAYSGIVAHQKHLLPTSPPISQASEGASSDIHTPAQMLLSTLQSTQRPTLPVGSLSSDKELTRPNETTIHTAGHSLAAGPEAGENQKQPEKNAGPTARTSAT
Regarding B1, the binding entry in experiment [1] and in experiment [2] was “binds” throughout.
